Test results reported in PMC12767855.
Results are given in words; binding and its absence hold for the method and conditions named. In cells and extracts the contact can be indirect. Some results given as binding are weak or reduced against the parent protein; the word gives no strength.

Target: T1, Par3L expressed in HEK293T cells (UniProt Q8TEW8)
T1 sequence: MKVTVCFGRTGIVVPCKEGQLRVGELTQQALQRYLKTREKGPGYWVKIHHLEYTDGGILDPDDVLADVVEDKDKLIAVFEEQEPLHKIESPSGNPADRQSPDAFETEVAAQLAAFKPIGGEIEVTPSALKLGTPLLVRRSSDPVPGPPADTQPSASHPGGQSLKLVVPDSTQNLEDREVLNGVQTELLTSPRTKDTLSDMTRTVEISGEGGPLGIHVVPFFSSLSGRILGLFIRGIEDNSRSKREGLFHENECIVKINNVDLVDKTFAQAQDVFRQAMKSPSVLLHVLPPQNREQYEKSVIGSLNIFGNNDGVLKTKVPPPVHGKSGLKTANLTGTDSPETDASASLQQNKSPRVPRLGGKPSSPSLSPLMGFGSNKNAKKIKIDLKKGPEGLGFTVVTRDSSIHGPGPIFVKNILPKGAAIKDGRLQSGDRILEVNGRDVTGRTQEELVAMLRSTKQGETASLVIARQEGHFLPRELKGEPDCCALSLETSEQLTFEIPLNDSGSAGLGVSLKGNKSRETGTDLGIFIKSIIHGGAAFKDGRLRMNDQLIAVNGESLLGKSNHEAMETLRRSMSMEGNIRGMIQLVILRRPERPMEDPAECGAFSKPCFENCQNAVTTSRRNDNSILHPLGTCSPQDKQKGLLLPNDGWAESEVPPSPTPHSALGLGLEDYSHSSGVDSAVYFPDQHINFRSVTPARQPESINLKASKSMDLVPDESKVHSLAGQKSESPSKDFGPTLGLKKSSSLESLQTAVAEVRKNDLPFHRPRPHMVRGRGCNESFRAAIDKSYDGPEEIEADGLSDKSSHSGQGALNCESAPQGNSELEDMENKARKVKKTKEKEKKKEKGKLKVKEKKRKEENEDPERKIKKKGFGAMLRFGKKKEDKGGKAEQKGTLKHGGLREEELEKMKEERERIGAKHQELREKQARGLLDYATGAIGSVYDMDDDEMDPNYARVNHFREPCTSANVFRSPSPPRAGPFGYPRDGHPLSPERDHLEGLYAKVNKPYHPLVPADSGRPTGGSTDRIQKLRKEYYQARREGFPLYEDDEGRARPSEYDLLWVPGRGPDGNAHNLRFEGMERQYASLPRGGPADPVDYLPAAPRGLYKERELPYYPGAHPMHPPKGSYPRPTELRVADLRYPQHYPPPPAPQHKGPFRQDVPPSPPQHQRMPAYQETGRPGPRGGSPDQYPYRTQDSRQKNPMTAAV
Assay: co-IP; Co-IP analysis of Par3L in HEK293T cells; conditions not given

B1: Fip1L1 expressed in HEK293T cells (protein, UniProt Q9D824 1-581)
chain: MSAGEVERLVELSGGTGGDEEEEWLYGGPWDVHVHSDLAKDLDENEVERPEEENASANPPSGIEEEAAENGVAKPKVTETEDDSDSDSDDDEDDVHVTIGDIKTGAPQYGSYGTAPVNLNIKAGGRVYGNTGTKVKGVDLDAPGSINGVPLLEVDLDSFEDKPWRKPGADLSDYFNYGFNEDTWKAYCEKQKRIRMGLEVIPVTSTTNKITVQQGRTGNSEKEAALPSTKAEFTSPPSLFKTGLPPSRNSTSSQSQTSTASRKASSSVGKWQDRYGRAESPDLRRLPGAIDVIGQTITISRVEGRRRANENSNIQVLSDRSATEVDNNFSKPPPFFPPGAPPTHLPPPPFLPPPPTVSTAPPLIPPPGIPITVPPPGFPPPPGAPPPSLIPTIESGHSSGYDSRSARAFPYGNVAFPHLTSSAPSWPSLVDTTKQWDYYARREKDRDRDRERDRDRERERDRDRERERTRERERERDHSPTPSVFNSDEERYRYREYAERGYERHRASREKEERHRERRHREKEETRHKSSRSNSRRRHESEEGDSHRRHKHKKSKRSKEGKEAGSEPVPEQESTEAAPAE
  binding: binds

B2: Mbnl2 expressed in HEK293T cells (protein, UniProt Q8C181 1-373)
chain: MALNVAPVRDTKWLTLEVCRQYQRGTCSRSDEECKFAHPPKSCQVENGRVIACFDSLKGRCSRENCKYLHPPTHLKTQLEINGRNNLIQQKTAAAMLAQQMQFMFPGTPLHPVPTFPVGPTIGTNAAISFAPYLAPVTPGVGLVPTEVLPTTPVIVPGSPPVTVPGSTATQKLLRTDKLEVCREFQRGNCARGETDCRFAHPADSTMIDTNDNTVTVCMDYIKGRCMREKCKYFHPPAHLQAKIKAAQHQANQAAVAAQAAAAAATVMTQSTAKALKRPLEATVDLAFPPGALHPLPKRQALEKSNGASTVFNPSVLHYQQALTSAQLQQHTAFIPTVPMMHSATSATVSAATTPATSVPFAATATANQIILK
  binding: binds

B3: Cpsf7 expressed in HEK293T cells (protein, UniProt Q8BTV2 1-471)
chain: MSEGVDLIDIYADEEFNQDSEFNNTDQIDLYDDVLTAASQPSDDRSSSTEPPPPVRQEPAPKPNNKTPAILYTYSGLRSRRAAVYVGSFSWWTTDQQLIQVIRSIGVYDVVELKFAENRANGQSKGYAEVVVASENSVHKLLELLPGKVLNGEKVDVRPATRQNLSQFEAQARKRECVRVPRGGIPPRAHSRDSSDSADGRATPSENLVPSSARVDKPPSVLPYFNRPPSALPLMGLPPPPIPPPPPLSSSFGVPPPPPGIHYQHLMPPPPRLPPHLAVPPPGAIPPALHLNPAFFPPPNATVGPPPDTYMKASTPYNHHGSRDSGPPPSTVSEAEFEEIMKRNRAISSSAISKAVSGASAGDYSDAIETLLTAIAVIKQSRVANDERCRVLISSLKDCLHGIEAKSYSVGASGSSSRKRHRSRERSPSRSRESSRRHRDLLHNEDRHDDYFQERNREHERHRDRERDRHH
  binding: binds
